Source: the supplement of paper PMC12067093, “Discovery and optimisation of a covalent ligand for TRIM25 and its application to targeted protein ubiquitination” (Chemical Science, 2025)
This is one part of the list.

By UniProt entry, the sequences of proteins in these tests, tags left out. Where a name states a change or a piece, a line headed by the entry shows the natural chain unless it says otherwise.
UniProt O75554: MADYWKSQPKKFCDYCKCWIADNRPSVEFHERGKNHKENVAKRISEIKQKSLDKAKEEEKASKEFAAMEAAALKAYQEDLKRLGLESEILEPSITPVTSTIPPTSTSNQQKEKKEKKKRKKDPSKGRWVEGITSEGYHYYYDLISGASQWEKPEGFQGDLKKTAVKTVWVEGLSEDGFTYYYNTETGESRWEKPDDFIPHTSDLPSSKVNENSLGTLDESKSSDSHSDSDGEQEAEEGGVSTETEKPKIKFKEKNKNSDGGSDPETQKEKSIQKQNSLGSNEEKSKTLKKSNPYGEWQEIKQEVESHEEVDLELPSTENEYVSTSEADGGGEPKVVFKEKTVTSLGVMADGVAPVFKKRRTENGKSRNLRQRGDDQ
UniProt Q6ZS81: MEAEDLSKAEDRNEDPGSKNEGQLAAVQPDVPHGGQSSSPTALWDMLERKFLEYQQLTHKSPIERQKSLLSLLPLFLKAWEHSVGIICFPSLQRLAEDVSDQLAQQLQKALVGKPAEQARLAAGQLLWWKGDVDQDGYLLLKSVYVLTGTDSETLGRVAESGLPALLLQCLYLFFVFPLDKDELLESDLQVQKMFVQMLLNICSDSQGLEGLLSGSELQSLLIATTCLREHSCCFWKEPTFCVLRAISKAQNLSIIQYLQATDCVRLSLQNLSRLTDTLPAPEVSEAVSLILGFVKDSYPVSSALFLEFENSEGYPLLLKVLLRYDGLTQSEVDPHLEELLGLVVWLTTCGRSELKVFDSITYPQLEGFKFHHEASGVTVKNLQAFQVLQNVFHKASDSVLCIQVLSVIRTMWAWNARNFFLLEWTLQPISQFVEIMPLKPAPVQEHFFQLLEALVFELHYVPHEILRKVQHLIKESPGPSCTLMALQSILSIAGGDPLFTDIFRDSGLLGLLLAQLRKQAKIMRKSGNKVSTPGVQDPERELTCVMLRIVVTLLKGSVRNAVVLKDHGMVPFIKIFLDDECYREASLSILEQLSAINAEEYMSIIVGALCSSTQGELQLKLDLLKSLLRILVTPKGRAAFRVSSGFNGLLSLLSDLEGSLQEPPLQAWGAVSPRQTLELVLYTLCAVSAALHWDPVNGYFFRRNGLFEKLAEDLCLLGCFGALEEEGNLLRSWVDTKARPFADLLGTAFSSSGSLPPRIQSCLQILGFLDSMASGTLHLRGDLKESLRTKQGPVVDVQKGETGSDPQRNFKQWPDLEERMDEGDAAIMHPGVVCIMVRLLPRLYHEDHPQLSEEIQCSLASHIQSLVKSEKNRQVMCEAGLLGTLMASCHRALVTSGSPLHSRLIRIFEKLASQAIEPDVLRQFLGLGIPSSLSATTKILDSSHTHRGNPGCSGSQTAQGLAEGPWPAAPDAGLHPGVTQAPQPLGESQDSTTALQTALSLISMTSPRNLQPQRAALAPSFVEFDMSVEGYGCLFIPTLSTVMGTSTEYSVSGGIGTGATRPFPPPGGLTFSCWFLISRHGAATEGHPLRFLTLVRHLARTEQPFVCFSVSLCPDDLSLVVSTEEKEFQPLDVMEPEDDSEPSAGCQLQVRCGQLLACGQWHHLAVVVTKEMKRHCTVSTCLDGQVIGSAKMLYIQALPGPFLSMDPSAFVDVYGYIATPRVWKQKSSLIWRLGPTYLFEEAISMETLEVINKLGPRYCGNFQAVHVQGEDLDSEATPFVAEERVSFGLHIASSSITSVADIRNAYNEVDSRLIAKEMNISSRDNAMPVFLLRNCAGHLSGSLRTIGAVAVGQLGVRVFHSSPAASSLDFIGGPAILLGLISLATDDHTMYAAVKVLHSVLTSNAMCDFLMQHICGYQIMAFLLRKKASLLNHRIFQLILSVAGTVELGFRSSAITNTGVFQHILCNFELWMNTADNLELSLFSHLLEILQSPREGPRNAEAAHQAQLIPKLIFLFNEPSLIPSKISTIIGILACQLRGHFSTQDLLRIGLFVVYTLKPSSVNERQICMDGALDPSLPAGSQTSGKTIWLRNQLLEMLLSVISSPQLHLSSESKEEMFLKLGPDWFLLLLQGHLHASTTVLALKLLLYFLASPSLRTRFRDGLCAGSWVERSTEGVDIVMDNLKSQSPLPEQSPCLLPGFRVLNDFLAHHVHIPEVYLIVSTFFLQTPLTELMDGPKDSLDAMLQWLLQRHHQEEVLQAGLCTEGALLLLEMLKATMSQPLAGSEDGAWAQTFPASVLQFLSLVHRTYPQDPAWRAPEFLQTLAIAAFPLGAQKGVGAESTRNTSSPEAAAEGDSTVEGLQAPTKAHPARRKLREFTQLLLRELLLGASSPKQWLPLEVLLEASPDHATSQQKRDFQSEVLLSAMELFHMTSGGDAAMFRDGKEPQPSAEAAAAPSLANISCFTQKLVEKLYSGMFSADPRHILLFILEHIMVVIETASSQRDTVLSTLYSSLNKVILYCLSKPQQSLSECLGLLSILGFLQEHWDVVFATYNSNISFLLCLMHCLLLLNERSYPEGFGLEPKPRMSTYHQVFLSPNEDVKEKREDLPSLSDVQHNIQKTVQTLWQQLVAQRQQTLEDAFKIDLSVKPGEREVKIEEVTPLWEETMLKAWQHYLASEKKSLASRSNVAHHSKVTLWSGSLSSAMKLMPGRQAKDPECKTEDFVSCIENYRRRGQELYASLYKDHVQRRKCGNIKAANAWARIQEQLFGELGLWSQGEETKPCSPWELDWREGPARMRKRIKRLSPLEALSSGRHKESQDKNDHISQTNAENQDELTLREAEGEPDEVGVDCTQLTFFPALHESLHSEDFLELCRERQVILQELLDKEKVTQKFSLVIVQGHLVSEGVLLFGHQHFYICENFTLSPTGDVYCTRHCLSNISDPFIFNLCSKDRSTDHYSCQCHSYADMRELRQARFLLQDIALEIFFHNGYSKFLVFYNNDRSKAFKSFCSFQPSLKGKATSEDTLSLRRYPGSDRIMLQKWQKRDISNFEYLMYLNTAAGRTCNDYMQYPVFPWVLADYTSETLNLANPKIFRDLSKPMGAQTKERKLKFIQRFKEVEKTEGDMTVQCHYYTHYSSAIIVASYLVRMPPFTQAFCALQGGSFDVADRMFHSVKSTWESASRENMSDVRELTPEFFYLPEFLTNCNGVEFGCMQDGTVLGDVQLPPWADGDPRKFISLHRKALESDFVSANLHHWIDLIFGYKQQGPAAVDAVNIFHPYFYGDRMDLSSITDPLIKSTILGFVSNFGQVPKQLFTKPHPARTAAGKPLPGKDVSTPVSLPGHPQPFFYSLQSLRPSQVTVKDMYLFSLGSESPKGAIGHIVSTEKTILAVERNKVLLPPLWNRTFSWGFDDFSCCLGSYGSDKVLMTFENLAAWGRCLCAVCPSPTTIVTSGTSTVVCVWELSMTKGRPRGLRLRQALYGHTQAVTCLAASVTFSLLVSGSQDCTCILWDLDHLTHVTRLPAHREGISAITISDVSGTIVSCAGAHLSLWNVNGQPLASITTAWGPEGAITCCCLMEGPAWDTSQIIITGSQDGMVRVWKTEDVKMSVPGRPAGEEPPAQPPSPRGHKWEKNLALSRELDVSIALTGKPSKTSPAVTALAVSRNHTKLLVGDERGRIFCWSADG
UniProt Q14191, whole entry, looked up: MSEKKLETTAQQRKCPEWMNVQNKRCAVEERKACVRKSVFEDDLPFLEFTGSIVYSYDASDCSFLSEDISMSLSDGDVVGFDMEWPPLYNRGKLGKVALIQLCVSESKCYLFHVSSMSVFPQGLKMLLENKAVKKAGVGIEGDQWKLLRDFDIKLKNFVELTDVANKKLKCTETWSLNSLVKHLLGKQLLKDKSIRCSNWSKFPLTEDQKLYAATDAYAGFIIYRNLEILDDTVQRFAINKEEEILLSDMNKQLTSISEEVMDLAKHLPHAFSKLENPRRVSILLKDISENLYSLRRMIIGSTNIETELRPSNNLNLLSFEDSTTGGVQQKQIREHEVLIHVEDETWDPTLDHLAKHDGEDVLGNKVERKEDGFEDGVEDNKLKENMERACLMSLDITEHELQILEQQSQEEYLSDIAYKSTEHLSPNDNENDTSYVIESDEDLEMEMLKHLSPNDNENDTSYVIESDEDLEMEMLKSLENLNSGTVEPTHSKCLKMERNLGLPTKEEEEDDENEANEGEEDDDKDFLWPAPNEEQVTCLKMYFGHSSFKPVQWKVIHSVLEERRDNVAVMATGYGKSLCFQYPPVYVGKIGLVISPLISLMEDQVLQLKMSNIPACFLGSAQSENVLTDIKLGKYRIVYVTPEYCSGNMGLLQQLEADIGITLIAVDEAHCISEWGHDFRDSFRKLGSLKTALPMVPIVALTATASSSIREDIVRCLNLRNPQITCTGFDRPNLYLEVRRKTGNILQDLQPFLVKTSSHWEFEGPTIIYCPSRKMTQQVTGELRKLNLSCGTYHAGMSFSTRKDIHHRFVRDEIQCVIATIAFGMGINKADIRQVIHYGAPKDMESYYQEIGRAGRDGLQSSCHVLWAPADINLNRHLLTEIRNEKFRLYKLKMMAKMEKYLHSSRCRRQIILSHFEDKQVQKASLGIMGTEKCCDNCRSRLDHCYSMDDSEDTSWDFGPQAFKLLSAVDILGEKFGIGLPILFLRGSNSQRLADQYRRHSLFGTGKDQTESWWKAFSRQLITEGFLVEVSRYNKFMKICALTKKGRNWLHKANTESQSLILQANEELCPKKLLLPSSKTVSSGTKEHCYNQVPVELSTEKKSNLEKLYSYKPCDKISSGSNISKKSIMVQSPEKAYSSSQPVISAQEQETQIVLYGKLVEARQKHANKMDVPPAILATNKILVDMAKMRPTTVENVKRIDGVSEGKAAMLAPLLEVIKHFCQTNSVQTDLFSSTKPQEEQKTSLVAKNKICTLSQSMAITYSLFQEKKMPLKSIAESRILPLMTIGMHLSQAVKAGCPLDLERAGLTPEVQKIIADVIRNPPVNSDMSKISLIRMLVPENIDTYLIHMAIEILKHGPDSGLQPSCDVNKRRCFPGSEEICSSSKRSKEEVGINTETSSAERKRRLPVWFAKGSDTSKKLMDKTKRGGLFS
UniProt Q9HCS7: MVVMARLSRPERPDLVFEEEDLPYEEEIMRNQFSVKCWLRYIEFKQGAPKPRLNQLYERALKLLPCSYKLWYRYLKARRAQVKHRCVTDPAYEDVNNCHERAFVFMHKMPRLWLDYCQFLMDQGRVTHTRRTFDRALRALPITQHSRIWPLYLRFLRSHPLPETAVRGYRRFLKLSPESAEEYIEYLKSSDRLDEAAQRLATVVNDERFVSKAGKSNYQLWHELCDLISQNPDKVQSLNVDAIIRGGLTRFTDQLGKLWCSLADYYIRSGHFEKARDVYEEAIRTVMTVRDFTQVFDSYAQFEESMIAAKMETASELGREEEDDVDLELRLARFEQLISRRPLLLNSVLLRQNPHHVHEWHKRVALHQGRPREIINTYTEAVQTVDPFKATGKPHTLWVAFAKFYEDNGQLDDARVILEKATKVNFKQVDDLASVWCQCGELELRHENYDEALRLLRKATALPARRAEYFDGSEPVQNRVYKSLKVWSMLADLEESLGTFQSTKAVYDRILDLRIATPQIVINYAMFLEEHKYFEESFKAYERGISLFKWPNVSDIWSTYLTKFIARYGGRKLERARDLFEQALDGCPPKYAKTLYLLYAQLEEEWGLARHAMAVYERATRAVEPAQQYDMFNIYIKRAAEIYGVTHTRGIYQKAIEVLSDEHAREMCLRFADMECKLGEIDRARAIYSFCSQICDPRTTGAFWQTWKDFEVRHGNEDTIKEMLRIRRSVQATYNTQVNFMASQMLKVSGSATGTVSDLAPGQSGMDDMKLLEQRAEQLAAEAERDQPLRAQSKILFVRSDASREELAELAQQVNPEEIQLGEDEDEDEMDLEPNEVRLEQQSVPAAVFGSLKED
UniProt P98170, whole entry, looked up: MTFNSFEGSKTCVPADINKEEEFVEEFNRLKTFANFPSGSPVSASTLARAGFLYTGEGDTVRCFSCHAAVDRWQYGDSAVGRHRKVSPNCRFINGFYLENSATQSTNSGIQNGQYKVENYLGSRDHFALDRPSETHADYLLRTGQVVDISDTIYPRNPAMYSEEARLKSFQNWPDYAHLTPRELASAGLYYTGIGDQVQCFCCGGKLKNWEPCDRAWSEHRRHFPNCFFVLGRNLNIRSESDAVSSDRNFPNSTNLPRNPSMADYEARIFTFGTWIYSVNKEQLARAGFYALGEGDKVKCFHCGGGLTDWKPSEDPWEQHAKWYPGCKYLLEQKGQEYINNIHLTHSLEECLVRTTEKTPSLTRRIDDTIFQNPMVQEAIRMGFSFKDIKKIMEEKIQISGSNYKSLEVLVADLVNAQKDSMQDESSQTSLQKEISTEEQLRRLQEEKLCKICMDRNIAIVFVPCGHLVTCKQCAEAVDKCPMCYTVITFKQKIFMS

Compound: Cc1cc(ccc1-c1ccccc1)C(=O)N1CCCN(CC1)C(=O)CCl [compound 10]
Assay: probe-labelled cysteine peptide fold change vs DMSO (competition) (log2 fold change); higher = less target engagement (more negative = stronger competition)
Conditions: THP-1, incubation time: 4 h
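Also: competitive profiling in live THP-1 cells: cysteine peptides tagged with an iodoacetamide desthiobiotin (IA-DTB) probe, intensity after compound treatment relative to DMSO-treated cells.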

Target | probe-labelled cysteine peptide fold change (10 µM) | probe-labelled cysteine peptide fold change (50 µM)
WDR1_O75083_325_SIQCLTVHK (UniProt O75083) | 0.0015 | -0.0707
WASHC5_Q12768_385_WLMLHTADSACDPNNKR (UniProt Q12768) | -2.11 | -2.63
WDFY1_Q8IWB7_317_KCGQAVCGK (UniProt Q8IWB7) | 0.0561 | -0.611
WNK4_Q96J92_412_EIIEGCIR (UniProt Q96J92) | 0.155 | 0.0648
XPO1_O14980_498_NLNTLCWAIGSISGAMHEEDEK (UniProt O14980) | -0.0104 | 0.087
WBP4_O75554_13_KFCDYCK (UniProt O75554) | 0.0364 | -0.466
WDR3_Q9UNX4_296+307_ILACHGTDSVLELFCILSK (UniProt Q9UNX4) | -0.125 | 0.0981
WDR37_Q9Y2I8_8_PTESASCSTAR (UniProt Q9Y2I8) | -0.0903 | -0.545
WDR3_Q9UNX4_307_ILACHGTDSVLELFCILSK (UniProt Q9UNX4) | 0.0303 | 0.246
WDFY4_Q6ZS81_2226_TEDFVSCIENYRR (UniProt Q6ZS81) | -0.0638 | -0.222
WRN_Q14191_197_CSNWSK (UniProt Q14191) | -0.339 | -0.848
WDR75_Q8IWA0_12_CGGSELNFR (UniProt Q8IWA0) | -0.0904 | 0.022
WDR47_O94967_367_SLMLENTECHSIYEESPER (UniProt O94967) | -0.285 | -0.153
WDR53_Q7Z5U6_99_DSLDHFHVNEEEINCLSLNQTENLLASADDSGAIK (UniProt Q7Z5U6) | -0.617 | -0.182
WDR44_Q5JSH3_701_LITAANFCQNGK (UniProt Q5JSH3) | -0.0485 | 0.165
WDR76_Q9H967_562_FQAMWDPKQEDCVIVGSMAHPR (UniProt Q9H967) | -0.194 | -0.109
WDR37_Q9Y2I8_329_TANLYDVETSELVHSLTGHDQELTHCCTHPTQR (UniProt Q9Y2I8) | 0.139 | -0.257
XAF1_Q6GPH4_62_LEHQQVGCTMCQQSMQK (UniProt Q6GPH4) | -0.108 | -0.43
XAF1_Q6GPH4_105_LELHESYCGSR (UniProt Q6GPH4) | 0.0807 | 0.166
WDR91_A4D1P6_351_ELFSTTTSQCAEK (UniProt A4D1P6) | -0.291 | -0.214
XAB2_Q9HCS7_695_AIYSFCSQICDPR (UniProt Q9HCS7) | 0.278 | 0.149

Target | probe-labelled cysteine peptide fold change (10 µM) | probe-labelled cysteine peptide fold change (50 µM)
WDFY4_Q6ZS81_835_MDEGDAAIMHPGVVCIMVR (UniProt Q6ZS81) | -0.0563 | -0.131
XIAP_P98170_474_QCAEAVDK (UniProt P98170) | -0.0288 | -0.307
WDR46_O15213_172_ICQADIVEAVDIASAAK (UniProt O15213) | 0.083 | 0.0398
WEE1_P30291_263_TYWNDSCGEDMEASDYELEDETRPAKR (UniProt P30291) | -0.412 | -0.423
WWP2_O00308_88_VWSCHTLR (UniProt O00308) | 0.111 | 0.213
WDFY4_Q6ZS81_2226_TEDFVSCIENYR (UniProt Q6ZS81) | -0.17 | -0.159
WDR48_Q8TAF3_366_GGASIIQCHILNDKR (UniProt Q8TAF3) | 0.239 | -0.0402
WDR81_Q562E7_1715_SVFFVGQLEAPQHVVSCDGAVHVWDPFTGK (UniProt Q562E7) | -0.0631 | 0.193
WDR75_Q8IWA0_306_LGATIEHISVSPAGDLFCTSHSDNK (UniProt Q8IWA0) | 0.102 | 0.192
WDR5_P61964_205_IWDTASGQCLK (UniProt P61964) | 0.16 | 0.0228
WBP4_O75554_18_CWIADNRPSVEFHER (UniProt O75554) | -9.28e-05 | -0.155
WDR43_Q15061_131_VNCIQWHQDSGCLYSCSDDK (UniProt Q15061) | -0.0334 | 0.0669
WNK1_Q9H4A3_1135_VVECQLETHNRK (UniProt Q9H4A3) | 0.208 | 0.14
WDR91_A4D1P6_684_LFAFDSEGNYMLTCSATGGVIYK (UniProt A4D1P6) | 0.152 | 0.4
WSB1_Q9Y6I7_262_KLEGHHHDVVACDFSPDGALLATASYDTR (UniProt Q9Y6I7) | -0.0429 | 0.00783
WDFY4_Q6ZS81_1763_HHQEEVLQAGLCTEGALLLLEMLK (UniProt Q6ZS81) | 0.302 | 0.477
WDR6_Q9NNW5_688_ALGGCTRPHVILR (UniProt Q9NNW5) | -0.00601 | -0.406
XAB2_Q9HCS7_587_DLFEQALDGCPPK (UniProt Q9HCS7) | 0.161 | 0.156
WIZ_O95785_1399_TSHSSTEACCELCGLYFENR (UniProt O95785) | 0.339 | 0.377
WDR1_O75083_382_MTVDESGQLISCSMDDTVR (UniProt O75083) | 0.0605 | 0.328
WDR41_Q9HAD4_291_SNDISIHHFTCDEENVFAAVGR (UniProt Q9HAD4) | 0.135 | 0.418

Target | probe-labelled cysteine peptide fold change (10 µM) | probe-labelled cysteine peptide fold change (50 µM)
WDFY4_Q6ZS81_2251_KCGNIK (UniProt Q6ZS81) | -0.298 | -0.542
WWP2_O00308_186_HQPPSTNCFGGR (UniProt O00308) | -0.217 | -0.439
WDR1_O75083_225_VCALGGSK (UniProt O75083) | -0.113 | -0.12
WDHD1_O75717_277+285_GYAICGLAWHPTCGR (UniProt O75717) | 0.0322 | 0.203
WASHC5_Q12768_521_TVQLIQALEEVQEFHQLESNLQVCQFLADTRK (UniProt Q12768) | 0.198 | 0.314
WDR62_O43379_599_DIQMISCGADK (UniProt O43379) | 0.0358 | -0.419
WWP2_O00308_838_SHTCFNR (UniProt O00308) | -0.0998 | 0.118
WDR59_Q6PJI9_737_QLLESLLAHYCR (UniProt Q6PJI9) | 0.158 | 0.178
WNK3_Q9BYP7_278_CDNIFITGPTGSVK (UniProt Q9BYP7) | -0.0357 | -0.0535
WDR92_Q96MX6_184_VVCAGYDNGDIK (UniProt Q96MX6) | 0.0428 | 0.188
WDR70_Q9NW82_302_GEFMTCSNDATVR (UniProt Q9NW82) | 0.0185 | 0.175
WDHD1_O75717_170_VWQISDQTCAISWPLLQK (UniProt O75717) | -0.0868 | 0.109
XPNPEP1_Q9NQW7_582_ECDWLNNYHLTCR (UniProt Q9NQW7) | 0.173 | 0.128
WWOX_Q9NZC7_155_SFALHGAHVILACR (UniProt Q9NZC7) | 0.00648 | 0.191
WDR4_P57081_227_QLHCCHLASLQELVDPQAPQK (UniProt P57081) | 0.203 | 0.292
WDFY4_Q6ZS81_88_AWEHSVGIICFPSLQR (UniProt Q6ZS81) | -0.23 | 0.423
WDR3_Q9UNX4_183_WWDLDTQHCFK (UniProt Q9UNX4) | 0.0656 | 0.271
XPNPEP1_Q9NQW7_308_CCMPYTPICIAK (UniProt Q9NQW7) | 0.0138 | -0.283
WDR92_Q96MX6_24_GFNYTVFDCK (UniProt Q96MX6) | 0.113 | 0.165
WDR91_A4D1P6_366_KPEASGPEAEPCPELHTEPVEPLTR (UniProt A4D1P6) | -0.183 | -0.178
WDR77_Q9BQA1_172_AHAAQVTCVAASPHK (UniProt Q9BQA1) | 0.0618 | 0.254

Target | probe-labelled cysteine peptide fold change (10 µM) | probe-labelled cysteine peptide fold change (50 µM)
WDR1_O75083_438_KCFSIDNPGYEPEVVAVHPGGDTVAIGGVDGNVR (UniProt O75083) | -0.369 | -0.935
WDR74_Q6RFH5_316_SQLNCLLLSGR (UniProt Q6RFH5) | -0.0136 | -0.193
WDR6_Q9NNW5_830_LACHVMHLSSHR (UniProt Q9NNW5) | 0.144 | 0.0864
WDR76_Q9H967_81_NSNNEVACKK (UniProt Q9H967) | -0.446 | -0.599
WDHD1_O75717_781_CVELADLMTQNAVNLAIK (UniProt O75717) | 0.0763 | 0.0772
WDR12_Q9GZL7_205_FCSGSWDK (UniProt Q9GZL7) | -0.147 | -0.0496
WDR18_Q9BV38_384_TEQLQAVLCSTMEK (UniProt Q9BV38) | -0.0324 | 0.0157
WDR59_Q6PJI9_677_SLGELYILNVNDIQETCQK (UniProt Q6PJI9) | 0.135 | 0.22
WRAP53_Q9BUR4_519_LQLWWCGGAPDSSIPDDHQGEK (UniProt Q9BUR4) | 0.0573 | 0.173
WDR33_Q9C0J8_220_FATCSDDGTVR (UniProt Q9C0J8) | -0.203 | 0.0532
WDFY4_Q6ZS81_835_QWPDLEERMDEGDAAIMHPGVVCIMVR (UniProt Q6ZS81) | -0.252 | -0.485
XPC_Q01831_514_MCSDGEK (UniProt Q01831) | -0.13 | -0.508
WDR59_Q6PJI9_888_FVSCPPDPHK (UniProt Q6PJI9) | 0.00129 | 0.119
WDR75_Q8IWA0_451_INMPHEDCITALCFCNAEK (UniProt Q8IWA0) | 0.146 | 0.304
WDR81_Q562E7_464_SVLCGHVR (UniProt Q562E7) | -0.0534 | -0.275
WDR7_Q9Y4E6_109_LACTHTGIQFYQFSVGNQR (UniProt Q9Y4E6) | 0.162 | -0.152
WRN_Q14191_1090_EHCYNQVPVELSTEK (UniProt Q14191) | -0.552 | -0.379
WDR44_Q5JSH3_147_CFPSDETCEKPVDETTK (UniProt Q5JSH3) | -0.441 | -0.129
XIAP_P98170_351_GQEYINNIHLTHSLEECLVR (UniProt P98170) | 0.13 | -0.242
WDFY3_Q8IZQ1_1600_FGQFISSTLPTFAVCEK (UniProt Q8IZQ1) | 0.0647 | -0.255
WDR81_Q562E7_765_VQPAVPLQCLLHR (UniProt Q562E7) | -0.00443 | -0.0254
